In EP0346132A1, “Pharmaceutical products” (priority 1988, dated 1989):
At least one read-out could not be matched to a standard name with certainty.

System: HIV
Experiment: Anti-HIV assay (protection of infected cells, XTT microculture tetrazolium assay)
Assay type: cell-based
Details: Cell Line MT-2C
Description: Compound 14a was screened for anti-HIV activity at the National Cancer Institute, Frederick Cancer Research Facility, Frederick, Maryland (FCRF). The screening mode operational procedures utilized at FCRF are set forth in detail in U.S. patent application Serial No. 07/146,252, filed January 20, 1988, the disclosure of which is incorporated by reference herein.
Figure 2 depicts a plot of the percentage of test cells over uninfected cells (%) for both infected and uninfected cells as a function of the increasing concentration of compound 14a.
The data plotted on Figure 2 permit the calculation of an effective concentration (EC₅₀) with respect to infected cells of about 0.15 µg/ml, an inhibitory concentration (IC₅₀) with respect to normal cells of about 100 µg/ml, and a therapeutic index (TI₅₀) of about 667. An earlier assay carried out at the Southern Research Institute yielded a TI₅₀ of about 200 when MT-2 cells were cultured with H9/HTLV-IIIB.
The following are the current screening mode operational procedures utilized at Southern Research Institute, Birmingham, AL. […]
Cells to be treated in 50 ml conical centrifuge tubes for 30 minutes with 1-2 µg/ml of polybrene at 37°C, and pelleted (8 min., 1200 RPM). […] The plates are then incubated at 37°C in 5% CO₂ until ready for drug addition. […]

For `Nc1nc(N)c2ncn([C@H]3C=C[C@@H](CO)C3)c2n1` (racemic) [Compound 15a, (±)-(1α,4α)-4-(2,6-Diamino-9H-purin-9-yl)-2-cyclopentenylcarbinol], the ED₅₀ was 2.92.
